Measurements reported in PubChem BioAssay AID1259405 (NCATS, 2018)
Screen: 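Mouse-designed siRNAs used to find CHO productivity engineering targets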 (primary screen). System: Chinese hamster CHO-K1 ovary cells with stable secreted eGFP expression. Reagents: single siRNA against mouse genes, 0.8 pmol siRNA per well (2 µl of 400 nM stock). Duration: 3 days. Read-out: 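Per-well intracellular GFP measured by laser scanning cytometry, plus viability from ATP luminescence, each relative to plate median of non-targeting control wells, in %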. Scale: GFP, % of control: higher = more GFP per well, higher productivity; viability (ATP), % of control: higher = more viable cells (more ATP). Hit rule: 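a knock-down is called active if GFP reaches 120% or more of non-targeting control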.
The deposit covers about 50,000 reagents; below is a random part of them. In the full data, about 4,000 (8%) are marked active. 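Mouse siRNA library applied to hamster cells; one well for each siRNA.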 Entries without a mark were called inactive. The numbers tell different reagents against one gene apart. No sequences are given here.

gene	siRNA no.	GFP, % of control	viability (ATP), % of control
Tada2a	1	102	93.2
Tada2a	2	86.8	89.1
Lyset	1	29.8	33.8
Lyset	2	80.7	50.2
Lyset	3	84.4	79.3
Art2a	1	31.4	27.8
Art2a	2	65.5	86.7
Art2a	3	64.6	71.3
A530013C23Rik	1	86.7	102
A530013C23Rik	2	58.9	57.7
A530013C23Rik	3	94.9	99.3
Atxn7l2	1	81.8	69.2
Atxn7l2	2	45.5	81.5
Atxn7l2	3	59.2	70.9
Dtnbp1	1	83.1	70.6
Dtnbp1	2	69.7	83.9
Dtnbp1	3	78.5	70
Tle5	1	38.9	44.3
Tle5	2	34.2	21.6
Tle5	3	57.1	85.1
Palb2	1	32.1	43
Palb2	2	82.9	58.7
Palb2	3	64.5	79.9
Nefh	1	48.9	79.6
Nefh	2	67.8	35.6
Nefh	3	88.6	51.1
Rragd	1	72.6	80.9
Rragd	2	54.2	51.5
Rragd	3	63.7	70.7

The list goes on; the last 11 above are carried over.
gene	siRNA no.	GFP, % of control	viability (ATP), % of control
Tle5	2	34.2	21.6
Tle5	3	57.1	85.1
Palb2	1	32.1	43
Palb2	2	82.9	58.7
Palb2	3	64.5	79.9
Nefh	1	48.9	79.6
Nefh	2	67.8	35.6
Nefh	3	88.6	51.1
Rragd	1	72.6	80.9
Rragd	2	54.2	51.5
Rragd	3	63.7	70.7
Sptb	1	41.4	63.3
Sptb	2	133 (active)	34.4
Sptb	3	65.5	49.8
Or52h9	1	75.8	55.5
Or52h9	2	111	71.5
Or52h9	3	59.5	59.3
Cyp2c67	1	62.7	47.3
Cyp2c67	2	46	74.2
Cyp2c67	3	72.5	80.4
Vmn1r219	1	121 (active)	46.2
Vmn1r219	2	93.4	54.9
Vmn1r219	3	88	95.7
Nme2	1	143 (active)	62.7
Nme2	2	67.1	74.5
Nme2	3	105	92.4
Or2j6	1	68	42.8
Or2j6	2	104	83.5
Or2j6	3	64.2	64.2
Glrx3	1	86.3	77.2
Glrx3	2	75.4	65.6
Glrx3	3	66.2	61.6
Adat2	1	28.4	42.3
Adat2	2	87.7	61.8
Adat2	3	112	87.1
9530056K15Rik	1	79.1	51.1
9530056K15Rik	2	96.8	60.6
9530056K15Rik	3	70.1	76.6
Id2	1	117	82.2
Id2	2	67.7	40.3
Id2	3	119	98.7
Ankhd1	1	96.5	76.2
Ankhd1	2	79.8	92.6
Ankhd1	3	119	106
Lcn3	1	45.7	38.8
Lcn3	2	66.5	53.3
Lcn3	3	128 (active)	83.9
Sgf29	1	92.8	108
Sgf29	2	101	76.7
Sgf29	3	51.8	72.1
Frrs1	1	85.6	77.5
Frrs1	2	66.3	84.5
Frrs1	3	66.2	66.2
Ren1	1	42.9	48.4
Ren1	2	31.5	42.4
Ren1	3	70.2	76.2
Npff	1	101	42
Npff	2	28.1	31.1
Npff	3	79.2	43.3
Aifm2	1	72	70.6
Aifm2	2	124 (active)	66.2
Aifm2	3	75.6	81.4
Tdp1	1	102	104
Tdp1	2	73.5	66.1
Tdp1	3	72.4	76.9
Psmb3	1	10.2	4.6
Psmb3	2	2.77	1.35
Psmb3	3	64.3	55.6
